Values from PubChem BioAssay AID686943 (Drosophila RNAi Screening Center, 2013).
The deposit covers about 23,000 reagents; this is an unselected part of those that have a named target and a result. 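Extra replicates exist only for a retested subset of genes; insulin dose and duration not given; both raised and lowered dpERK matter.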 The numbers tell different reagents against one gene apart. Further read-outs or replicates are left out here. Not stated in the record: the amount of reagent, the time to read-out.

Assay: 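Knockdowns that increase or decrease active ERK after insulin receptor stimulation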 (primary screen)
Cells: Drosophila S2R+ haemocyte-like cells expressing YFP-tagged ERK (Rolled)
Reagent: long dsRNA against Drosophila genes
Challenge: insulin stimulation versus unstimulated cells; dose and duration not given
Measured: 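Per-plate z-scores of phospho-ERK immunostaining normalised to YFP-tagged ERK, measured with and without insulin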
Scale: replicate 1, z-score of dpERK with insulin and replicate 2, z-score of dpERK with insulin: higher = more active ERK per ERK-YFP after insulin

CG10182 | replicate 1, z-score of dpERK with insulin = -0.8; replicate 2, z-score of dpERK with insulin = 0.01
Galphas | replicate 1, z-score of dpERK with insulin = -0.44; replicate 2, z-score of dpERK with insulin = 0.09
CG1307 | replicate 1, z-score of dpERK with insulin = -0.64; replicate 2, z-score of dpERK with insulin = -0.16
CG7582 | replicate 1, z-score of dpERK with insulin = 0.25; replicate 2, z-score of dpERK with insulin = -0.03
CG12493 | replicate 1, z-score of dpERK with insulin = -0.05; replicate 2, z-score of dpERK with insulin = -1.8
CG1440 | replicate 1, z-score of dpERK with insulin = 1; replicate 2, z-score of dpERK with insulin = 0.08
Pez | replicate 1, z-score of dpERK with insulin = 0.35; replicate 2, z-score of dpERK with insulin = 0.21

In a second layout: entries from further up.
CG1307
- replicate 1, z-score of dpERK with insulin: -0.64
- replicate 2, z-score of dpERK with insulin: -0.16

CG7582
- replicate 1, z-score of dpERK with insulin: 0.25
- replicate 2, z-score of dpERK with insulin: -0.03

The results go on.
Hyccin | replicate 1, z-score of dpERK with insulin = 0.02; replicate 2, z-score of dpERK with insulin = -0.09
CG45067 | replicate 1, z-score of dpERK with insulin = 0.54; replicate 2, z-score of dpERK with insulin = -0.16
e(y)3 | replicate 1, z-score of dpERK with insulin = -0.1; replicate 2, z-score of dpERK with insulin = -0.61
IntS12 | replicate 1, z-score of dpERK with insulin = -1.37; replicate 2, z-score of dpERK with insulin = 0
GluRIB #1 | replicate 1, z-score of dpERK with insulin = 0.28; replicate 2, z-score of dpERK with insulin = 1.53
GluRIB #2 | replicate 1, z-score of dpERK with insulin = 1.97; replicate 2, z-score of dpERK with insulin = 0.81
Usf | replicate 1, z-score of dpERK with insulin = 0.44; replicate 2, z-score of dpERK with insulin = 0.52
Oseg4 | replicate 1, z-score of dpERK with insulin = -0.27; replicate 2, z-score of dpERK with insulin = -0.2
CG32801 | replicate 1, z-score of dpERK with insulin = 0.57; replicate 2, z-score of dpERK with insulin = -0.58
Wdr24 | replicate 1, z-score of dpERK with insulin = -0.07; replicate 2, z-score of dpERK with insulin = 0.04
CG12708 | replicate 1, z-score of dpERK with insulin = 0.33; replicate 2, z-score of dpERK with insulin = 0.25
CG34133 #1 | replicate 1, z-score of dpERK with insulin = -0.75; replicate 2, z-score of dpERK with insulin = -1.07
CG34133 #2 | replicate 1, z-score of dpERK with insulin = 0.01; replicate 2, z-score of dpERK with insulin = -0.23
Bka | replicate 1, z-score of dpERK with insulin = -1.32; replicate 2, z-score of dpERK with insulin = 0.29
